Measurements as given in article PMC12210014.
These are yes or no findings as the source states them, for the method shown. Binding seen in cells or lysates may run through a third protein. Some results given as binding are weak or reduced against the parent protein; the word gives no strength. Sequences can lack the tags named with a protein.

Chains of the proteins cited; added tags and fusions are not shown.
UniProt A0ACM8QJT5: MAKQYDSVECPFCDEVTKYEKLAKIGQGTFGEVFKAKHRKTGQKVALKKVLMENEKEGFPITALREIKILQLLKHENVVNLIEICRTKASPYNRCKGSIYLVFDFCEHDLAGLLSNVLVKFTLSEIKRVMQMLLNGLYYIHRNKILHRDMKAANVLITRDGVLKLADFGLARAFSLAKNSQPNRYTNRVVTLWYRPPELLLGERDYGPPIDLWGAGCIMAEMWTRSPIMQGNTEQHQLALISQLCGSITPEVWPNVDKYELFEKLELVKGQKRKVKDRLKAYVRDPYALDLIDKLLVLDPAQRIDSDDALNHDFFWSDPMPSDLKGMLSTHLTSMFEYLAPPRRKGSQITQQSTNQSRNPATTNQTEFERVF

Target: T1, HA-tagged FKBPL (pig) (UniProt A5A8W3)
T1 sequence: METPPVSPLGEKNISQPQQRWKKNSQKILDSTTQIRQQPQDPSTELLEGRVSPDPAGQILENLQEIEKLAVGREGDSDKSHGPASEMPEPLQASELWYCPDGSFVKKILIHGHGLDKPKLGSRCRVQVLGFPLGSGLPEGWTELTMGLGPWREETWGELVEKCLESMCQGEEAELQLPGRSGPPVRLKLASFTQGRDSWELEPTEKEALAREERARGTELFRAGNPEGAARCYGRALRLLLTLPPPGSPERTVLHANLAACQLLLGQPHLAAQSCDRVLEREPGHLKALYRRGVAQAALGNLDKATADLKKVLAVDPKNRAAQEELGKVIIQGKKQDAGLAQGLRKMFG
Assay: co-IP; IP followed by western blotting, pig 8-cell embryos; three biological replicates

binding	Substance
binds	HSP90AA1 (from UniProt O02705 1-733)
binds	CDK9 (from UniProt A0ACM8QJT5 1-372)
